Our source for the binding values is doi:10.1101/597153.

By UniProt entry, the sequences of proteins in these tests, tags left out.
UniProt Q12778: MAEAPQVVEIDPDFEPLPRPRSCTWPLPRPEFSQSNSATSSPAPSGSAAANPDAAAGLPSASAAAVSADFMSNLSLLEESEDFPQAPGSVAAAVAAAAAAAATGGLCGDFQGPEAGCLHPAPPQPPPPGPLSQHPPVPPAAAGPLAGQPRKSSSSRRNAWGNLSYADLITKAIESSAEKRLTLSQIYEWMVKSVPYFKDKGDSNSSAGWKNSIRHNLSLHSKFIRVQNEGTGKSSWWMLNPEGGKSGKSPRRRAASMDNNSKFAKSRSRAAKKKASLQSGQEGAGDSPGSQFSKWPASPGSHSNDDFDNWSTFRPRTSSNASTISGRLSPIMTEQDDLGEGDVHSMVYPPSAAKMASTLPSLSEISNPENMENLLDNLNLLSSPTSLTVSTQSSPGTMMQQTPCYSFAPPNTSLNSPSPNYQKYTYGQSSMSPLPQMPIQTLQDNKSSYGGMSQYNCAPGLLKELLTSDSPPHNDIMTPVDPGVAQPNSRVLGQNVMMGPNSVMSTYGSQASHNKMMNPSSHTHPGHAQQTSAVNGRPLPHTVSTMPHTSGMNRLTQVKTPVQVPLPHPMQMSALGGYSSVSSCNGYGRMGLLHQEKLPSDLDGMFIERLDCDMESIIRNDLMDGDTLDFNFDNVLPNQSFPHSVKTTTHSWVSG

Residue numbers refer to the chain shown, from its start. Results are given in words; binding and its absence hold for the method and conditions named. In cells and extracts the contact can be indirect. Some results given as binding are weak or reduced against the parent protein; the word gives no strength. Sequences can lack the tags named with a protein.

One assay has as its target T1, FLAG-SIRT1-WT (mouse) (UniProt Q923E4).
T1 sequence: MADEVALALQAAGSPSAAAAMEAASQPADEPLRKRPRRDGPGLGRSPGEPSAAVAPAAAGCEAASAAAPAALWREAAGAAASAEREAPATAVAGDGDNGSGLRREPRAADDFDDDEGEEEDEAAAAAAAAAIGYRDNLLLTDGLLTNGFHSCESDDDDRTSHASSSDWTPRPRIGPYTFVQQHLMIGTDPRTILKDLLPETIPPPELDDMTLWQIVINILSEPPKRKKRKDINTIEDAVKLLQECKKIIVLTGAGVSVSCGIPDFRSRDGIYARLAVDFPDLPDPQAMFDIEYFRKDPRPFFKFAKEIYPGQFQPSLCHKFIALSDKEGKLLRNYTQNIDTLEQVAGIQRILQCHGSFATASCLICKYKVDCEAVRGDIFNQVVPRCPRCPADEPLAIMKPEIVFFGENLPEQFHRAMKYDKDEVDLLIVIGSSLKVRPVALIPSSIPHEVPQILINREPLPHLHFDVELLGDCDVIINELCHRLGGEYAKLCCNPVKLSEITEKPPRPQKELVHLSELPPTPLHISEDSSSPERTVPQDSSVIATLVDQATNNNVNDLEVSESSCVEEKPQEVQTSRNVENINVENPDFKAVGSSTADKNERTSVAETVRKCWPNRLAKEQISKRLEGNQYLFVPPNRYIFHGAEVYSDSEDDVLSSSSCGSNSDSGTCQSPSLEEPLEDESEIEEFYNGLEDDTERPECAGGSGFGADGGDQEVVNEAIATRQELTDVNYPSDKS
The assay is described as follows: co-IP.

A further assay concerns the target T2, FLAG-SIRT1-mutE2 (mouse) (UniProt Q923E4).
T2 sequence: T1 sequence with T160A, S161A
The assay is described as follows: co-IP.

As to FOXO1 (from UniProt Q12778 1-655), the binding result with FLAG-SIRT1-WT (mouse) and with FLAG-SIRT1-mutE2 (mouse) was “binds” each time.
